Structures are written as SMILES. Some of the results follow. Further columns of the screen follow, without active or inactive calls. Compounds called inactive in the main read-out are mostly missing here. Words in brackets tell the shape of the fitted curve; partial curves, single points and poor fits give uncertain potencies.

A short description of this test: qHTS Assay for Identifying the Cell-Membrane Permeable IMPase Inhibitors. The note with it: CHO-M1 cells, IP1 accumulation, HTRF TR-FRET ratio; measured here: donor channel 620 nm AC50. The source says:
NCGC IMPase Assay Overview
Lithium has been widely used for the treatment of bipolar disorder. But lithium has a narrow therapeutic index and it can cause side effects such as thirst, weight gain, tremor, polyuria and memory problems. Although the mechanism for lithium action in treatment of bipolar disorder is still not fully understood, inhibition of inositol monophosphatase (IMPase) and the subsequent depletion of the inositol pool in living cells have been implicated as the primary therapeutic benefit of lithium therapy. Therefore, a selective IMPase inhibitor with reduced side effects might be a good drug candidate to replace lithium for the treatment of bipolar disorder. Several IMPase inhibitors have been discovered previously. However, they are not suitable for therapeutic use because of their poor cell membrane penetrability or oral bioavailability; the development of new cell-permeable IMPase inhibitors is needed.
IMPase catalyzes the hydrolysis of inositol-1-phosphate (IP1) to release free inositol. Binding of an agonist to a Gq coupled GPCR results in the activation of PLC, which hydrolyzes the PIP2 to form inositol-1,4,5-trisphosphate (IP3) and diacyl glycerol (DAG). While DAG activates protein kinase C (PKC), IP3 triggers the elevation of intracellular free Ca2+. The IP3 is very rapidly inactivated by hydrolysis to IP2, IP1 and then inositol by a series of enzymes including IMPase. Free inositols are used for synthesis of PI and thus start another inositol cycle.
To identify new cell-permeable IMPase inhibitors, we developed a cell-based IMPase assay in which the cytosolic IP1 is measured by a time-resolved fluorescence resonance energy transfer (TR-FRET) assay. In this assay, an IP1 specific antibody is used to detect the labeled IP1 tracer. When the cell lysate contains the elevated IP1 due to the inhibition of IMPase, the TR-FRET between the labeled antibody and IP1 tracer is disrupted resulting in a reduction in the total signal. Since the TR-FRET is used, this cell-based assay is a homogenous assay without cell wash and medium change that is suitable for assay miniaturization and HTS.
NCGC IMPase Assay Protocol Summary
A Chinese hamster ovary (CHO) cell line stably expressing the M1 receptor (CHO-M1) was obtained from ATCC and maintained in F-12 Kaighn's media (Invitrogen, Carlsbad, CA, 21127) supplemented with 10 % FBS, 100 units/ml penicillin, 100 ug/ml streptomycin and 250 ug/ml geneticin at 37C, 5% CO2 in a humidified atmosphere. Before the assay, aliquots of cells were frozen and stored at -135C. The assay was performed in 1536-well format. Data are reported for both the ratio of the two emission wavelengths, and also for the component 'donor' channel, Em2=620. […] AC50 values were determined from concentration-response data modeled with the standard Hill equation.
IMPase 1536-well assay protocol:
(1) Plate 4 ul/well (2000 cells) of cell suspension from frozen CHO-M1 Cells in white, tissue culture treated 1536-well plates that are cultured at 37C, 5 % CO2 for 16 to 30 hours.
(2) Add 23 nl/well of compound in DMSO solution. The final titration for each compound was between 0.6 nM and 46 uM.
(3) Add 1 ul of carbachol (50 uM in stimulation buffer containing10mM HEPES, 1mM CaCl2, 0.5 mM MgCl2, 4.2 mM KCl, 146 mM NaCl, 5.5 mM glucose, 50mM LiCl, pH 7.4.
(4) Incubation at 37C, 5 % CO2 for 30 min.
(5) Add 1 ul/well of d2-conjugated IP1 (d2-IP1) and 1 ul/well of Eu+ cryptate conjugated anti-IP1 antibody (Eu+-Ab) prepared in the cell lysis buffer, both from the IP-One kit (Cisbio, MA).
(6) Incubate at room temperature for 10 minutes.
(7) Detect the assay plate (Ex = 320, Em1 =665 and Em2 620) in a ViewLux plate reader.
inositol monophosphatase, IMPase, IMPase inhibitor, lithium, bipolar disorder, IP-One, HTRF, qHTS, NIH roadmap, NCGC
Note: In the gene ID and protein GI references for this assay, rat IMPase is referenced instead of hampster as hamster accession numbers were not available.
A word on the AC50: it is the concentration giving half of the maximal activity seen. For `COc1ccc(/C=C/C(=O)OC(C)CN2CCOCC2)cc1` (centres undefined), the AC50 is 6310 nM [falling, partial curve].
As to `Cc1ccc(S(=O)(=O)N(C)CC(=O)NCc2ccncc2)cc1`, the AC50 is 25.1 nM [falling, full curve, poor fit].
Consider `CCCC1S/C(=N/N=C/c2ccc(OC)cc2)N(Cc2ccccc2)C1=O` (centres undefined), for which the AC50 is 794 nM [falling, full curve, poor fit].
As for `O=C1CCCN1c1ccc(S(=O)(=O)NCCOc2ccccc2)cc1`, the AC50 is 100 nM [falling, single point].
For the molecule `O=C(NCCCn1ccnc1)C(=O)NCc1ccc(Cl)cc1`, the AC50 is 12600 nM [rising, partial curve].
The result for `O=C(c1ccco1)N1CCN(C(=O)c2cc3c(=O)oc4ccccc4c3s2)CC1` reads 31600 nM [rising, single point]; that for `Cc1cc(C)nc(Nc2ncc(O)n2-c2ccc(C)c(Cl)c2)n1`, 5.01 nM [falling, full curve, poor fit]; that for `COc1ccc(C2C3=C(N=C4SCC(=O)N42)c2ccccc2CC3)cc1` (centres undefined), 5010 nM [falling, single point].
`COc1ccccc1NC(=O)Cc1noc(CSc2nnc(C)s2)n1`: the AC50 is 10 nM [falling, full curve, poor fit].
Turning to `CCOC(=O)c1cnc2ccc(Cl)cc2c1NCCN(C)C`, the AC50 is 1000 nM [falling, full curve].
Then `O=C(COc1ccccc1C(=O)N/N=C\c1ccc(O)c(O)c1)N/N=C/c1ccc(O)c(O)c1`, with 10000 nM [falling, partial curve].
Regarding `COc1cc2cc(Br)cc(Br)c2nc1C`, the AC50 was 15800 nM [rising, partial curve].
Consider `O=C(Nc1ccccc1)OCN1C(=O)c2ccccc2C1=O`, for which the AC50 was 794 nM [falling, single point].
Take `Cc1ccc2[nH]c(C(=O)O)c(-c3ccccc3)c2c1`: the AC50 was 6310 nM [falling, single point].
Regarding `Cc1c(C(=O)Nc2ccc(-c3nc4cc(Cl)ccc4o3)cc2)oc2ccccc12`, the AC50 was 5010 nM [rising, partial curve].
On to `COc1ccc(C(CC(=O)O)NC(=O)c2sc3ccccc3c2Cl)cc1` (centres undefined), for which the AC50 was 11200 nM [rising, partial curve].
Then `CC(C)(C)n1nnnc1C(c1cccnc1)N(Cc1ccccc1)Cc1ccco1` (centres undefined), with 200 nM [rising, single point]; and `O=C(Nc1ccc(Cl)cc1C(=O)NCCN1CCOCC1)c1ccco1`, with 35500 nM [falling, single point]; and `CC(C)CN1C(=O)/C(=C/c2cccs2)NC1=S`, with 12600 nM [falling, single point].
`COCCn1c(C)cc(C(=O)CSc2nnc(C)s2)c1C`: the AC50 was 35500 nM [falling, single point].
Regarding `CCOC(=O)CSc1nc(-c2ccncc2)ccc1C#N`, the AC50 is 501 nM [falling, partial curve].
Regarding `COc1ccc(-n2[nH]c(C)cc2=O)cc1`, the AC50 was 251 nM [falling, full curve].
Consider `CN(C)C(=O)Cn1c(SCC(=O)Nc2ccc3c(c2)OCO3)nc2ccccc21`, for which the AC50 is 794 nM [falling, full curve].
With `COc1ccc(CCNC(=O)C(=O)NCC2CCCO2)cc1` (centres undefined), the AC50 was 1000 nM [falling, full curve].
As for `N#Cc1ccc(Oc2cc(C(F)(F)F)nc(-c3ccccn3)n2)cc1`, the AC50 is 398 nM [rising, full curve].
On to `CN(C)CCN1C(=O)c2oc3ccc(F)cc3c(=O)c2C1c1ccncc1` (centres undefined), for which the AC50 is 200 nM [rising, full curve, poor fit].
`CN(C)CCN1C(=O)C(O)=C(C(=O)c2cc3ccccc3o2)C1c1cccc(Br)c1` (centres undefined): the AC50 was 12600 nM [rising, partial curve].
On to `Cc1c(CN(C)C(=O)c2cc(-c3ccccc3)nc3ccc(Br)cc23)cnn1C`, for which the AC50 was 10000 nM [rising, partial curve].
For `Cc1occc1C(=O)NNC(=O)Nc1ccc(F)cc1F`, the AC50 was 28.2 nM [falling, full curve, poor fit].
For `Cc1c(-c2ccc(Cl)cc2)oc(=O)c2c(N)n(-c3ccccc3)nc12`, the AC50 was 12600 nM [rising, single point].
As to `CCOc1ccc(C(=O)Nc2ccc3oc(-c4cccc5ccccc45)nc3c2)cc1`, the AC50 was 1120 nM [falling, partial curve, poor fit].
On to `Cc1cc2cc(CNC(=O)c3ccc(S(=O)(=O)N4CCCCC4)cc3)ccc2n1C`, for which the AC50 is 20000 nM [rising, single point].
On to `O=C1CNC(=O)/C1=C\N1CCCCC1`, for which the AC50 is 501 nM [falling, single point].
Consider `CCn1nc(NC(=O)c2cccnc2)c2cc3cccc(C)c3nc21`, for which the AC50 was 63.1 nM [rising, full curve, poor fit].
On to `CCC(C)NC(=O)CSc1nnc(-c2cc(-c3ccc(C)cc3)nc3ccccc23)n1N` (centres undefined), for which the AC50 is 3160 nM [rising, single point].
For `Cc1csc(NC(=O)COc2ccc3c(C)cc(=O)oc3c2)n1`, the AC50 is 1000 nM [falling, partial curve, poor fit].
In the case of `Cc1cc(C)c2oc(-c3cc(NC(=O)Cc4ccccc4)ccc3Cl)nc2c1`, the AC50 was 8.91 nM [falling, full curve, poor fit].
Consider `COc1ccc(-c2nnc(-c3cc(OC)c(OC)c(OC)c3)o2)cc1OC`, for which the AC50 is 12600 nM [falling, partial curve].
On to `O=c1c2ccccc2sc2ccc(Cl)cc12`, for which the AC50 is 31600 nM [rising, single point].
With `CC1=C(C(=O)N(C)C)C(c2cccs2)NC(=O)N1` (centres undefined), the AC50 was 100 nM [falling, full curve].
For the molecule `CC(C)n1c(NCCc2ccccc2)nc2c1c(=O)n(C)c(=O)n2C`, the AC50 is 89.1 nM [falling, full curve, poor fit].
For `CCOC(=O)C1=C(c2ccccc2)NC(=O)NC1c1ccc(OCC#N)c(OC)c1` (centres undefined), the AC50 was 31600 nM [rising, single point].
Regarding `Cc1ccc(-n2c(N)c(C#N)c(-c3ccc(Cl)cc3)c(C#N)c2=O)cc1`, the half-maximal activity concentration (AC50) is 31600 nM [falling, single point].
In the case of `CCOc1ccc(/C(O)=C2/C(=O)C(=O)N(CCOCCO)C2c2ccc(F)cc2)cc1` (centres undefined), the AC50 is 12600 nM [rising, partial curve].

The values are drawn from PubChem BioAssay AID901 (National Center for Advancing Translational Sciences (NCATS), 2007).
